Measurements as given in patent US9095541B2, “Brain tumor targeting peptides and methods” (Arch Cancer Therapeutics, Inc., priority 2009, dated 2015).
Not every detail of the peptide structures is certain; ends, links or a residue may be inferred. Peptide text beside a SMILES is read from it.

Legend:
U87R cells [1] = assay: Subtractive/selective biopanning of Ph.D.-12 phage display library against U87R cells, sequencing of subclones; set-up: species or system human; conditions: given as n/100
Description: The present inventors have earlier described an in vivo selection for a population of human glioma cells that were highly invasive (U87R). In order to isolate peptides that could bind specifically to these highly invasive glioma cells, a biopanning experiment using a combinatorial phage display library was employed. Initially subtractive biopanning was performed with the U87 cells that were non-invasive (U87T) followed by selective biopanning with the U87R cells to isolate a library of phage (FIG. 1A) that were confirmed to preferentially interact with U87R cells by whole-cell ELISA (FIG. 1B).
Biopanning was performed as described in [61]. Subtraction cells (e.g. U87T) were released from tissue culture plastic with Puck's EDTA, and after washing with PBS, 1×10^7 cells were resuspended in 1% BSA in PBS with 1.5×10^11 pfu of Ph.D.-12 M13 Phage Library (New England Biolabs). The cells and phage were incubated in an eppendorf tube for 1 hour at room temperature with gentle shaking, before pelleting the cells and retaining the supernatant, which was transferred to a fresh tube with another aliquot of subtraction cells. The incubation and transfer of supernatant was performed three times, with the supernatant being transferred to an empty tube on the last round. Selection cells were released from tissue culture plastic with Puck's EDTA (e.g. U87R cells) and washed in PBS. […]

U87R cells [2] = assay: Transwell migration assay through brain-like matrix coated membranes, U87R; assay type: cell-based, human
[3] = system: U87MG cells transfected with p75^NTR; assay: Transwell migration assay, p75NTR-transfected U87MG; assay type: cell-based, human; conditions: synthetic peptide, 50 uM
Description: The membranes of 8 μm pore sized transwell inserts (Corning Costar) were coated with brain-like matrix (720 μL of 3 mg/mL collagen I (PureCol); 180 μL of 10×DMEM (Invitrogen); 9 uL of 1 mg/mL human plasma fibronectin (Sigma); 9 uL of 1 mg/mL chondroitin sulfate proteoglycans (Chemicon); 16 μL of 0.15 mg/mL laminin (Chemicon)) on both sides, allowed to dry, then plated with 5×10^4 cells in 100 μL media in the upper chamber and 500 μL media in the lower chamber. Inclusion of collagen was essential to see the inhibitory effect of H10 (FIG. S4). 3×10^10 pfu of test phage were added to the upper chambers containing the cells, which were incubated for 4 hours under normal culture conditions. At the end of the incubation, the media was aspirated and the cells were fixed and stained in 1% crystal violet in 95% ethanol for one minute. Transwells were rinsed in PBS, then cells on the upper membrane surfaces were removed with a cotton swab. Cells which had migrated to the undersurface of the membranes were counted by light microscopy, and the sum of cells in five microscopic fields was recorded for each membrane.

[4] = system: BTIC lines established from individual patient specimens; assay: Transwell migration assay, patient-derived BTIC lines; assay type: cell-based, human; conditions: H10 peptide
p75^NTR in U87R cells = assay: Sucrose/iodixanol density gradient fractionation with Western blot for p75NTR; assay type: cell-based, human; conditions: U87R cells on collagen, treated 2 hours, 10-40% sucrose/iodixanol gradient
From the text: White arrows indicate higher molecular weight p75^NTR-containing complexes. Lines underneath the figure indicate the fractions in which common organelles are generally found;
The p75^NTR can be detected differentially in lipid rafts isolated with specific detergents, and must be proteolytically processed to trigger cell migration in glioma cells. Thus, it is probable that p75^NTR is also cleaved within a lipid raft after endocytosis. To determine if H10 may be having an impact on endosomally located p75^NTR, cells were hypertonically lysed (to keep vesicles and organelles at least partially intact) and separated on a 10-40% sucrose/iodixanol gradient from which fractions were individually collected.
Cells were scraped into 1 mL of 0.25M sucrose, 140 mM NaCl, 1 mM EDTA, 20 mM Tris-HCl, pH 8.0, and dounce homogenized until cells were no longer visible by microscopy. Debris was pelleted for 5 min, 800×g and the supernatant was loaded on top of a 10 mL continuous 10-40% gradient, prepared by the dilution of OptiPrep (Sigma, 60% iodixanol) with 0.25M sucrose, 140 mM NaCl, 3 mM EDTA, 60 mM Tris-HCl, pH8.0. Gradients were spun in a swinging bucket rotor at 48000×g for 18 hrs and 0.5 mL fractions were collected. Total protein was precipitated from each fraction by the addition of 2 volumes of −20° C. […]

p75^NTR in BTIC 25 cells = assay: Confocal imaging of p75NTR in BTIC 25 cells treated with phage; assay type: cell-based, human
[5] = system: transferrin or its receptor (markers of clathrin-coated vesicles); assay: FITC-transferrin uptake and transferrin receptor gradient fractionation; assay type: cell-based, human; conditions: U87p75 and U87R cells, 2 hours
Description: FIG. 9A are confocal images of p75^NTR transfected glioma cells (U87p75) imaged for uptake of FITC-transferrin.
Cells were lysed, fractioned using an iodixanol gradient, and Western Blot analysis for the transferrin receptor was performed;
Cells were scraped into 1 mL of 0.25M sucrose, 140 mM NaCl, 1 mM EDTA, 20 mM Tris-HCl, pH 8.0, and dounce homogenized until cells were no longer visible by microscopy. Debris was pelleted for 5 min, 800×g and the supernatant was loaded on top of a 10 mL continuous 10-40% gradient, prepared by the dilution of OptiPrep (Sigma, 60% iodixanol) with 0.25M sucrose, 140 mM NaCl, 3 mM EDTA, 60 mM Tris-HCl, pH8.0. Gradients were spun in a swinging bucket rotor at 48000×g for 18 hrs and 0.5 mL fractions were collected. Total protein was precipitated from each fraction by the addition of 2 volumes of −20° C. 20 mM DTT, 15% TCA, storage at −20° C. overnight, followed by centrifugation at 4° C. for 20 minutes. Pellets were resuspended in 20 μL 1M Tris and 20 μL 2× Laemmli buffer. The entire volume was loaded into a single well for SDS-PAGE resolution and western transfer.

p75^NTR = assay: Anti-p75NTR Western blot of full-length protein and cleavage products; assay type: cell-based, human
U87R xenografts = assay: In vivo phage homing, U87R xenografts, anti-M13 immunohistochemistry; set-up: species or system SCID mice; conditions: phage injected for ten minutes, PBS perfusion
Description: FIG. 6A illustrates the in vivo homing capability of H10. Invasive U87R or non-invasive U87T cells were grown in the right brain hemisphere of SCID mice. Once tumors were established, mice were anaesthetized and perfused with H10 phage for 10 minutes. Unbound phage was flushed from the system with PBS. Brains were cryosectioned and immunohistochemically stained for M13 phage or human nuclear antigen (hNA).
The ability of the selected phage or their corresponding peptides was examined for their ability to ‘home’ to their respective U87R or BTIC glioma cell targets in vivo, according to their ability to detect glioma cells in an orthotopic xenograft model. In the case of H10, SCID mice carrying U87R or U87T xenografts were injected with the test phage for ten minutes, which was subsequently perfused with PBS to remove any unbound particles.
3×10^4 U87T cells, 3×10^5 U87R cells or 5×10^4 BTICs were injected in a 3 μL volume into one brain hemisphere of a SCID mouse and allowed to grow for 4, 6 or 12 weeks respectively. […]
Serial sections were fixed with cold acetone, and rehydrated through an ethanol gradient. […] Avidin-biotin peroxidase complexes were then formed using the VECTASTAIN Elite ABC kit (Vector Laboratories) and detected by addition of […] […]

U87T xenografts = assay: In vivo phage homing, U87T xenografts, anti-M13 immunohistochemistry; set-up: species or system SCID mice; conditions: phage injected for ten minutes, PBS perfusion
[6] = system: implanted GBM tumor from the U87MG cell line; assay: In vivo targeting of fluorescent peptide to implanted U87MG tumor, fluorescence microscopy of brain sections; set-up: species or system mice
Description: In the studies shown in FIGS. 13A and 13B, brain tumors were implanted in mice with a patient-derived BTIC cell line BT025 identified as above by its binding to the 7A peptide. After tumor growth from the implanted cells, the tumors were removed, sectioned and stained for microscopic visualization. In the studies shown in FIGS. 14-19, a fluorescent peptide was administered intravenously, either by intracorotid injection or via tail vein into mice having an implanted GBM tumor from the BT025 cell line (FIGS. 14-17) or the U87MG cell line (FIGS. 18 and 19), and after localization of the peptide, the animal were sacrificed and their brain tumors removed for sectioning and visualization by fluorescence microscopy.
(§1) FIGS. 18A and 18B-18D show similar views, where the animal was injected with a fluorescently labeled modified H10 peptide (SEQ ID NO: 17, preferential for HIGC binding), in animals carrying a tumor initiated with the U87MG human glioblastoma cell line. For these studies, the tumors were not grown as large, and a far-red fluorescent signal is not obvious from inspection without sectioning (FIG. 18A).
as §1, with “19A” for “18A”, “19B and 19D” for “18B-18D”, “E10” for “H10”, “13, which binds to both BTIC's and HIGC's),” for “17, preferential for HIGC binding),”, “19A).” for “18A).”

Row | SMILES | number cell-binding phages containing that sequence (U87R cells [1]) | migration of U87R cells through membranes coated with brain-like extracellular matrix (U87R cells [2]; phage, 3×10^10 pfu, 4 hrs at 37° C.) | migration of U87R cells (U87R cells [2]; synthetic peptide, 50 uM) | migration of U87MG cells transfected with p75^NTR [3] | BTIC lines tested whose migration was significantly inhibited ([4]; 3 of 5 BTIC lines, Dunnett's test p≦0.05) [%] | migration of BTIC lines, trend ([4]; five BTIC lines) | distribution of p75^NTR forms in density gradient fractions (p75^NTR in U87R cells) | p75^NTR at the cell membrane (p75^NTR in BTIC 25 cells; BTIC 25 cells, phage, 2 hours) | co-localisation of p75NTR intracellular and extracellular domains (p75^NTR in BTIC 25 cells; incubation of cells with H10) | intracellular localization or gradient fractionation of transferrin or its receptor [5] | processing of over-expressed transfected p75^NTR (p75^NTR) | endogenously expressed full length p75^NTR protein (p75^NTR; exposure to H10 for 4 hours and 1 week) | in vivo homing of phage to U87R tumors (U87R xenografts) | in vivo homing of phage to U87T tumors (U87T xenografts) | distribution of fluorescent peptide signal in brain sections ([6]; intracarotid injection) | localization of peptide conjugate in human GBM tissue in vivo (summary) ([6]; intravenous administration) | distribution of fluorescent peptide signal in brain sections ([6]; tail vein injection)
1 | CC[C@H](C)[C@H](NC(=O)[C@H](CO)NC(=O)[C@H](CC(N)=O)NC(=O)[C@@H](N)[C@@H](C)O)C(=O)N[C@@H](Cc1c[nH]c2ccccc12)C(=O)N[C@@H](Cc1ccc(O)cc1)C(=O)N[C@H](C(=O)N[C@@H](C)C(=O)N1CCC[C@H]1C(=O)N[C@@H](Cc1ccc(O)cc1)C(=O)N[C@@H](CCSC)C(=O)N[C@@H](Cc1ccccc1)C(=O)O)[C@@H](C)O [H10] (H-TNSIWYTAPYMF-OH; N-terminus and C-terminus assumed) | 3/100 | abrogate the migration of the U87R cells | inhibit the migration | inhibit the migration | 60 | all five showed an inhibitory trend | shift of higher molecular weight forms of p75^NTR into the denser gradient fractions | greatly increased at the cell membrane | increased co-localisation | no effect | does not show an obvious effect | slight accumulation | homed specifically to the U87R | not the U87T tumors | – | – | –
2 | CC[C@H](C)[C@H](NC(=O)[C@H](CO)NC(=O)[C@H](CC(N)=O)NC(=O)[C@@H](NC(=O)CNC(=O)[C@H](CCCCN)NC(=O)[C@@H](N)CCCCN)[C@@H](C)O)C(=O)N[C@@H](Cc1c[nH]c2ccccc12)C(=O)N[C@@H](Cc1ccc(O)cc1)C(=O)N[C@H](C(=O)N[C@@H](C)C(=O)N1CCC[C@H]1C(=O)N[C@@H](Cc1ccc(O)cc1)C(=O)N[C@@H](CCSC)C(=O)N[C@@H](Cc1ccccc1)C(=O)O)[C@@H](C)O [modified H10] (H-KKGTNSIWYTAPYMF-OH; N-terminus and C-terminus assumed) | – | – | – | – | – | – | – | – | – | – | – | – | – | – | binds primarily to cells that are diffusely spread outside the main tumor mass | can localize in human GBM tissue in vivo | A similar result was seen
